The source of these data is article PMC11239682.

Experiment [1] concerns the target T1, NopL-GFP-TbID (Sinorhizobium fredii HH103) (UniProt P55704).
T1 sequence: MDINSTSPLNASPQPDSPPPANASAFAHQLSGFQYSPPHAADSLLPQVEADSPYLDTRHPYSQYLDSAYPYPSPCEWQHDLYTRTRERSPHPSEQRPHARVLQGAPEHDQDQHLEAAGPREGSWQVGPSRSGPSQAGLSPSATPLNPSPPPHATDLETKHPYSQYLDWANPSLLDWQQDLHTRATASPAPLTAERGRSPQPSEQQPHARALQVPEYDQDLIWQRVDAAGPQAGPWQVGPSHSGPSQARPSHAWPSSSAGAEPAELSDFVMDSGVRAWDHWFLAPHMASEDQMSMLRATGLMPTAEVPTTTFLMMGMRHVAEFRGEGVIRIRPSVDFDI
Briefly: proximity labelling; TurboID fusion (GmREM1a-GFP-TbID or NopL-GFP-TbID) co-expressed with GmNFR5-FLAG in soybean hairy roots, with or without NopL-Myc (or GmREM1a-myc); 100 μM biotin 2 h; streptavidin beads; anti-FLAG and anti-GFP blots.

The target in experiment [2] is T2, His-NopL (recombinant Nodulation Outer Protein L of Sinorhizobium fredii HH103) (Sinorhizobium fredii HH103) (UniProt P55704).
T2 sequence: T1 sequence
Briefly: affinity purification with mass spectrometry; semi-pull-down: purified His-NopL added to protein extract of soybean root hairs (DN50, 1 dpi with HH103), caught on Ni NTA Magarose Beads, eluate analysed by LC-MS/MS; control without His-NopL; only the target purified.

These are yes or no findings as the source states them, for the method shown. In cells and extracts the contact can be indirect. A yes stands for co-enrichment or nearness to the bait. Other partners may have been found. For part of these data: No binding means not detected with the bait. Tags and fused reporters may be left off the sequences shown.

On to GmNFR5-FLAG (Glycine max) (receptor), for which, in experiment [1], the binding result was “binds”.

Turning to “Glycine max Remorin 1a (GmREM1a), endogenous”, the binding result in experiment [2] is “binds”.

GmREM1b, endogenous: the binding entry in experiment [2] is listed as “no binding”.
